No constants are given. Whether binding was seen depends on the method and setting. In cells and extracts the contact can be indirect. Some binding calls cover weakened binding; strength is not graded here.
Target: estrogen receptor alpha (human (endogenous in MCF7)) (UniProt P03372)
Assay: co-IP; endogenous proteins; pre-cleared MCF7 nuclear extracts, 5 ug ERα antibody or rabbit IgG control overnight, protein G agarose 2 h; washed in co-IP buffer (20 mM Tris pH 7.5, 150 mM NaCl, 1% NP40, 10% glycerol, 1 mM MgCl2); immunoblot

Amino acid sequences for entries named in this document (tags omitted).
UniProt O75362: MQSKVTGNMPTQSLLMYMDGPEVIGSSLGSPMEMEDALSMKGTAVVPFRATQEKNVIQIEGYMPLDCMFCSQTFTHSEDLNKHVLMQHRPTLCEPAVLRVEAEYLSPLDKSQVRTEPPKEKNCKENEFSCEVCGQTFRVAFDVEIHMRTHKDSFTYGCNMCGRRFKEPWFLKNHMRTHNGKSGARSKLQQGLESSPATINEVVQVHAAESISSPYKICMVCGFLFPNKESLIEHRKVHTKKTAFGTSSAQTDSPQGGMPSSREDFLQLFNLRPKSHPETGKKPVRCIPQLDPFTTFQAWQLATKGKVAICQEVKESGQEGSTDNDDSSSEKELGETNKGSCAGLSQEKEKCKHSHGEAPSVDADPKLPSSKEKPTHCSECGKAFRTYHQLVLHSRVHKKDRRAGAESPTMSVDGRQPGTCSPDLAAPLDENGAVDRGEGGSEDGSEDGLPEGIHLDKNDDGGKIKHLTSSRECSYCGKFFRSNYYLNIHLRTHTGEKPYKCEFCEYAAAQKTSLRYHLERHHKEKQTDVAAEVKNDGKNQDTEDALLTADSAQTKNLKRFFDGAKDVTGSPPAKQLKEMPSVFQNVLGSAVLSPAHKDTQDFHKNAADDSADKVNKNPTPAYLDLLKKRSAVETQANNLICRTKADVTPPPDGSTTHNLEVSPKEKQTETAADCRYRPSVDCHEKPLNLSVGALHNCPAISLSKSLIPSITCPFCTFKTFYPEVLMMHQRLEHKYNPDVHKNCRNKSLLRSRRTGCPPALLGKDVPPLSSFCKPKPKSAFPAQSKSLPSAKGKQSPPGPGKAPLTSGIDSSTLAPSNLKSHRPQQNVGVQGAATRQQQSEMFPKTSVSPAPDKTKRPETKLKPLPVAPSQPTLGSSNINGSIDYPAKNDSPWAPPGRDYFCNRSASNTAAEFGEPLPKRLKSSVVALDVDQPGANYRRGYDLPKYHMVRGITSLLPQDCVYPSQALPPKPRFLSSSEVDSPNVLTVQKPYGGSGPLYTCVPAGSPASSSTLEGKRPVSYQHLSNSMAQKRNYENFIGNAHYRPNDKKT

| binding | Substance |
| --- | --- |
| binds | CtBP2 (from UniProt P56545 1-445) |
| binds | zinc finger protein #217 (from UniProt O75362 1-1048) |

— paper PMC4082627
